Inconclusive results, whose numbers are uncertain, are shown with a selection of clear calls. Calls of active or inactive are those of the source.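 Rule for the calls: active = decreasing signal in every run, fitted half-effect dose at most ten times the top valid dose; inconclusive = runs disagree, weak flat effect, or poor curve fit; inactive = every run inactive, signal rises included.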
Test: blockers of SFLLRN-triggered platelet ATP secretion – cell-based, human platelets, luminescence, dry powder, dose response (AID 493100)
Settings: SFLLRN-induced ATP dense granule secretion; at 35 µM (top of the series)

| Compound | activity change, negative = inhibition |
| --- | --- |
| CCCC(=O)Nc1cccc(NC(=O)c2ccccc2OC)c1 | inactive: -17.9% |
| CCCC(=O)Nc1cccc(NC(=O)c2cccc(S(C)(=O)=O)c2)c1 | inactive: -7.48% |
| Cn1c(N)c(C#N)c(-c2ccccc2)c(C#N)c1=O | inconclusive: -27.8% |
| CCCC(=O)Nc1cccc(NC(=O)c2cccc(NC(C)=O)c2)c1 | inconclusive: -25.8% |
| CCc1ccc(S(=O)(=O)N/N=C\c2ccc([N+](=O)[O-])o2)cc1 | inconclusive: -61.5% |
| CCCC(=O)Nc1cccc(NC(=O)c2cccc(Cl)c2)c1 | inconclusive: 0.098% |
| CCCC(=O)Nc1cccc(NC(=O)c2cccc(C#N)c2)c1 | inconclusive: -19.8% |

Source: PubChem BioAssay AID493100 (Broad Institute, 2011)
